Record: PubChem BioAssay AID652243 (Drosophila RNAi Screening Center, 2013)
In all, the deposit lists about 24,000 reagents; shown is an unselected part of those with a known target gene and a result. Of all reagents, 246 (1%) are marked active. 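Plates not normalised; calls are printed but the firefly/Renilla ratio behind them is not deposited; fold cut for lowering reported inconsistently.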 Raw values vary from plate to plate and are shown uncorrected. Names joined by + are all predicted targets of the reagent. The record does not give: the amount of reagent.

Test: 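Fly genes required for human androgen receptor driven transcription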 (primary screen)
Cells: Drosophila S2R+ cells
Knock-down reagent: long dsRNA against Drosophila genes
Time to read-out: 72 h (48 h, then 24 h hormone)
Conditions: synthetic androgen R1881 at 10 nM for 24 h
Measured: 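Per-well raw luminescence of the androgen-driven firefly reporter and of the Renilla control, two replicates each, without normalisation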
Direction: firefly reporter light: higher = more light from androgen-responsive reporter; Renilla control light: higher = more constitutive control signal (cell number, transfection)
Active means: 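Across duplicate plates, a knock-down whose log firefly/Renilla ratio shifted a set fold down or up from the GFP/LacZ control mean was a hit; the downward cut appears as both 1.5 and 3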
Meaning of the calls: active = hit: reporter lowered or raised; inactive = no hit

| target gene | DRSC id | firefly reporter light, replicate 1 | firefly reporter light, replicate 2 | Renilla control light, replicate 1 | Renilla control light, replicate 2 | Outcome |
| --- | --- | --- | --- | --- | --- | --- |
| shf (shifted) | DRSC18283 | 1.40e5 | 1.68e5 | 2.44e6 | 2.66e6 | inactive |
| shf (shifted) | DRSC24224 | 5.20e5 | 3.25e5 | 1.08e6 | 4.98e5 | inactive |
| shf (shifted) | DRSC38947 | 8.31e5 | 6.62e5 | 1.78e6 | 1.47e6 | inactive |
| Acp26Ab (Accessory gland protein 26Ab) | DRSC01856 | 1.69e5 | 2.51e5 | 1.68e6 | 2.47e6 | inactive |
| Acp26Ab (Accessory gland protein 26Ab) | DRSC28398 | 3.11e5 | 8.26e5 | 6.43e5 | 1.30e6 | inactive |
| Mst98Cb (Male-specific RNA 98Cb) | DRSC16750 | 3.63e5 | 3.82e5 | 2.24e6 | 2.18e6 | inactive |
| Mst98Cb (Male-specific RNA 98Cb) | DRSC22495 | 6.03e5 | 8.36e5 | 5.22e5 | 1.05e6 | inactive |
| Mst98Cb (Male-specific RNA 98Cb) | DRSC25707 | 5.99e5 | 5.87e5 | 4.06e5 | 4.51e5 | inactive |
| CG11771 | DRSC14379 | 81244 | 71575 | 5.49e5 | 4.47e5 | inactive |
| CG11771 | DRSC27732 | 2.38e5 | 2.54e5 | 5.03e5 | 6.36e5 | inactive |
| CG14419 | DRSC17916 | 4.29e5 | 4.31e5 | 4.53e6 | 4.06e6 | inactive |
| CG14419 | DRSC27046 | 6.60e5 | 4.77e5 | 7.12e5 | 6.12e5 | inactive |
| Mtk (Metchnikowin) | DRSC07475 | 1.11e5 | 1.13e5 | 1.93e6 | 1.93e6 | inactive |
| Mtk (Metchnikowin) | DRSC29753 | 3.58e5 | 3.35e5 | 1.21e6 | 1.35e6 | inactive |
| Ugt37B1 (UDP-glycosyltransferase family 37 member B1) | DRSC03225 | 1.52e5 | 1.36e5 | 1.87e6 | 1.54e6 | inactive |
| CG17047 | DRSC06648 | 3.86e5 | 2.37e5 | 2.24e6 | 1.70e6 | inactive |
| B-H1 (BarH1) | DRSC21922 | 7.01e5 | 7.35e5 | 1.59e6 | 1.46e6 | inactive |
| B-H1 (BarH1) | DRSC27190 | 3.58e5 | 4.34e5 | 8.01e5 | 7.82e5 | inactive |
| CG17560 | DRSC15242 | 2.15e5 | 1.86e5 | 3.48e6 | 2.65e6 | inactive |
| CG10474 | DRSC05993 | 42910 | 51440 | 5.68e5 | 6.35e5 | inactive |
| SerT (Serotonin transporter) | DRSC04655 | 2.60e5 | 2.34e5 | 2.21e6 | 2.47e6 | inactive |
| SerT (Serotonin transporter) | DRSC28934 | 4.10e5 | 3.98e5 | 1.20e6 | 1.22e6 | inactive |
| Ir67b (Ionotropic receptor 67b) | DRSC09876 | 1.54e5 | 1.75e5 | 1.70e6 | 1.44e6 | inactive |
| CG30259 | DRSC04164 | 3.67e5 | 3.68e5 | 2.34e6 | 1.96e6 | inactive |
| CG30259 | DRSC04165 | 3.29e5 | 3.98e5 | 2.12e6 | 2.53e6 | inactive |
| CG41320 (retired record) + l(3)80Fg | DRSC38582 | 7.19e5 | 3.78e5 | 1.27e6 | 8.08e5 | inactive |
| CG5021 | DRSC10469 | 3.29e5 | 2.79e5 | 3.27e6 | 2.94e6 | inactive |
| Hers + amn | DRSC20306 | 2.78e5 | 1.14e5 | 1.18e6 | 3.36e5 | inactive |
| CG31954 | DRSC00580 | 9.41e5 | 7.35e5 | 2.25e6 | 1.71e6 | inactive |
| CG31954 | DRSC28191 | 4.92e5 | 4.07e5 | 1.68e6 | 1.30e6 | inactive |
| Pepck1 (Phosphoenolpyruvate carboxykinase 1) | DRSC07505 | 1.47e5 | 1.90e5 | 3.55e6 | 2.48e6 | inactive |
| Pepck1 (Phosphoenolpyruvate carboxykinase 1) | DRSC26468 | 2.62e5 | 2.36e5 | 6.81e5 | 5.58e5 | inactive |

5 entries already listed, ordered by “Renilla control light, replicate 1”, ascending.
| target gene | DRSC id | firefly reporter light, replicate 1 | firefly reporter light, replicate 2 | Renilla control light, replicate 1 | Renilla control light, replicate 2 | Outcome |
| --- | --- | --- | --- | --- | --- | --- |
| Mst98Cb (Male-specific RNA 98Cb) | DRSC25707 | 5.99e5 | 5.87e5 | 4.06e5 | 4.51e5 | inactive |
| CG11771 | DRSC27732 | 2.38e5 | 2.54e5 | 5.03e5 | 6.36e5 | inactive |
| Mst98Cb (Male-specific RNA 98Cb) | DRSC22495 | 6.03e5 | 8.36e5 | 5.22e5 | 1.05e6 | inactive |
| CG11771 | DRSC14379 | 81244 | 71575 | 5.49e5 | 4.47e5 | inactive |
| Mst98Cb (Male-specific RNA 98Cb) | DRSC16750 | 3.63e5 | 3.82e5 | 2.24e6 | 2.18e6 | inactive |

Next entries:
| target gene | DRSC id | firefly reporter light, replicate 1 | firefly reporter light, replicate 2 | Renilla control light, replicate 1 | Renilla control light, replicate 2 | Outcome |
| --- | --- | --- | --- | --- | --- | --- |
| Nup58 (Nucleoporin 58kD) | DRSC16235 | 2.49e5 | 1.39e5 | 3.53e6 | 2.59e6 | inactive |
| Nup58 (Nucleoporin 58kD) | DRSC27863 | 6.30e5 | 4.02e5 | 2.91e6 | 1.39e6 | inactive |
| CG9759 | DRSC16558 | 1.04e5 | 57549 | 4.66e5 | 4.00e5 | inactive |
| CG9759 | DRSC26341 | 3.16e5 | 2.69e5 | 1.06e6 | 9.72e5 | inactive |
| ana1 (anastral spindle 1) | DRSC16079 | 1.44e5 | 97707 | 1.10e6 | 1.24e6 | inactive |
| ana1 (anastral spindle 1) | DRSC21825 | 4.16e5 | 3.66e5 | 2.89e6 | 4.52e6 | inactive |
| ana1 (anastral spindle 1) | DRSC30086 | 1.06e6 | 1.09e6 | 1.07e6 | 1.20e6 | inactive |
| CG6659 | DRSC20003 | 75928 | 95697 | 3.68e5 | 6.01e5 | inactive |
| PGRP-LA (Peptidoglycan recognition protein LA) | DRSC10327 | 2.89e5 | 2.22e5 | 2.45e6 | 2.22e6 | inactive |
| PGRP-LA (Peptidoglycan recognition protein LA) | DRSC10414 | 2.63e5 | 2.04e5 | 3.31e6 | 2.07e6 | inactive |
| CG11700 | DRSC17794 | 12919 | 28432 | 1.55e5 | 1.60e5 | inactive |
| CG11700 | DRSC23384 | 1.23e5 | 1.48e5 | 1.29e5 | 1.45e5 | inactive |
| CG8086 | DRSC03078 | 6.21e5 | 7.36e5 | 1.76e6 | 1.80e6 | inactive |
| CG8086 | DRSC03079 | 1.80e5 | 2.08e5 | 1.38e6 | 1.64e6 | inactive |
| CG8086 | DRSC27677 | 2.58e5 | 1.82e5 | 4.50e5 | 8.00e5 | inactive |
| dsb (debris buster) | DRSC08542 | 1.16e5 | 45000 | 1.58e6 | 8.42e5 | inactive |
| CG12910 | DRSC06225 | 2.00e6 | 1.11e6 | 1.77e6 | 1.20e6 | inactive |
| l(2)k05819 (lethal (2) k05819) | DRSC00826 | 1.10e6 | 1.15e6 | 3.03e6 | 2.58e6 | inactive |
| Alp9 (Alkaline phosphatase 9) | DRSC10486 | 1.03e6 | 8.20e5 | 1.42e6 | 1.13e6 | inactive |
| Alp9 (Alkaline phosphatase 9) | DRSC36890 | – | – | – | – | inactive |
| fray (frayed) | DRSC16950 | 1.08e5 | 1.37e5 | 1.54e6 | 1.36e6 | inactive |
| fray (frayed) | DRSC36742 | – | – | – | – | inactive |
| fray (frayed) | DRSC36743 | – | – | – | – | inactive |
| CG3225 | DRSC00578 | 7.58e5 | 1.04e6 | 2.04e6 | 2.07e6 | inactive |
| CG3225 | DRSC30078 | 9.67e5 | 1.17e6 | 1.22e6 | 1.05e6 | inactive |
| drongo | DRSC00814 | 1.43e5 | 2.00e5 | 9.87e5 | 1.16e6 | active |
| drongo | DRSC25074 | 2.23e5 | 3.32e5 | 2.79e5 | 4.45e5 | inactive |
